# Assay results: the supplement of paper PMC12819154, “High-throughput peptide-centric local stability assay extends protein–ligand identification to membrane proteins, tissues and bacteria” (Nature Structural & Molecular Biology, 2025)
# Amino acid sequences for entries named in this document (tags omitted). A change or cut given only in a name is not applied to a line headed by its entry.
# UniProt D3Z4S3: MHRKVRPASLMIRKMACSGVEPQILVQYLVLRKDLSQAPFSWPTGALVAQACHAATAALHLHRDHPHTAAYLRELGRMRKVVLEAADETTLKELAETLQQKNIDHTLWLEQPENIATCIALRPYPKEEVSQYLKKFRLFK
# UniProt B1AR13: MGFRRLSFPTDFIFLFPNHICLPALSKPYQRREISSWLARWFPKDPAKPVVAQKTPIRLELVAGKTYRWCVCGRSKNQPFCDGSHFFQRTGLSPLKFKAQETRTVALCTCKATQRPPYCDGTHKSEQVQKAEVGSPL
# UniProt E9Q0S6: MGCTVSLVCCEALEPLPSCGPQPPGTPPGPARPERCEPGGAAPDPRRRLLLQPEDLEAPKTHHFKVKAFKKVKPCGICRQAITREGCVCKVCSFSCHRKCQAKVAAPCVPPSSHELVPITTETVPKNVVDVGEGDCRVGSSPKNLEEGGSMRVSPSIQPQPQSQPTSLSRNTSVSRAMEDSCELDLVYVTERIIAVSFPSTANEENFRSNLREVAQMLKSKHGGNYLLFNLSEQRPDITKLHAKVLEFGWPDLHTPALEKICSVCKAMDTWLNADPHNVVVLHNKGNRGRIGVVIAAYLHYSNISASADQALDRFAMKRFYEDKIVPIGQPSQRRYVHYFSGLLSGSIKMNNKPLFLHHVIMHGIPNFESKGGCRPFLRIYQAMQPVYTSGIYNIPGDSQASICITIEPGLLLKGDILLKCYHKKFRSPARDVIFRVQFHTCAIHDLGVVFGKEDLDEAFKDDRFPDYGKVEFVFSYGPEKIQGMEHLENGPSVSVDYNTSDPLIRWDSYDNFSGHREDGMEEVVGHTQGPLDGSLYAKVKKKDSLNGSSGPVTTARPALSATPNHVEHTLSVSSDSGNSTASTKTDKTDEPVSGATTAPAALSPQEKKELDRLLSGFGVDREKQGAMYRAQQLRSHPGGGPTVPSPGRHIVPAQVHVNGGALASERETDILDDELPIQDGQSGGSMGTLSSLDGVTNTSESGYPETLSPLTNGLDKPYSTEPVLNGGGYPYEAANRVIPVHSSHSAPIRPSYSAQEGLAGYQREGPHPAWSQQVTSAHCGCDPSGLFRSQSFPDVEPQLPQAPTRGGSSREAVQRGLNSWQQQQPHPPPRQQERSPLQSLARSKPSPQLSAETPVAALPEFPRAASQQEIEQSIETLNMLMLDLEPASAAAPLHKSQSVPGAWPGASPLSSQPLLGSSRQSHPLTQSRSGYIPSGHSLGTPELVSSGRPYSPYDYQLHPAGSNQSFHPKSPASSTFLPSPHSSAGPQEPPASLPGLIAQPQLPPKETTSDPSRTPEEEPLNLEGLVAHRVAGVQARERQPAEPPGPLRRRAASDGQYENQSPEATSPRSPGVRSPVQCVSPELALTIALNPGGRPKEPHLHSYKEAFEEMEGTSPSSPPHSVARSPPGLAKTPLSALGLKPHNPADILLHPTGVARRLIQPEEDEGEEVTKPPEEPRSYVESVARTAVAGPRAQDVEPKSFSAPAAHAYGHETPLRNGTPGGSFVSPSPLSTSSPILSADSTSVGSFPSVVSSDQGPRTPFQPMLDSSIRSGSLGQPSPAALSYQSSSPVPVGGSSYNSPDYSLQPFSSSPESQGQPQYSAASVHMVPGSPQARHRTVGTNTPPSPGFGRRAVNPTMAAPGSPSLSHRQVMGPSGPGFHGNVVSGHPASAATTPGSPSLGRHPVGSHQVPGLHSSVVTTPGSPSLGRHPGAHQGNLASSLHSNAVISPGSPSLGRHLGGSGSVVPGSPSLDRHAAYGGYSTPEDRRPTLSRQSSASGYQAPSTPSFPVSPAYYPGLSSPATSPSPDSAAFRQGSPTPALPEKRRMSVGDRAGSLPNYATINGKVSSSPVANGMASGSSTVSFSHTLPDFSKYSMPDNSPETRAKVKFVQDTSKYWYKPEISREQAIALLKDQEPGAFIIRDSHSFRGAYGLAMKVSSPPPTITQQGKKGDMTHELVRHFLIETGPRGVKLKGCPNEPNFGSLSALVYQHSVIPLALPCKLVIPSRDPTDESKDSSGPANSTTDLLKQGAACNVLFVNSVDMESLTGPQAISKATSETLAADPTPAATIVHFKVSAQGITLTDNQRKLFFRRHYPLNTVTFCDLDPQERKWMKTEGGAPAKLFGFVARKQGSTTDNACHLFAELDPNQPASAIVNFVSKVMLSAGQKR
# UniProt A6X8Z5, whole entry: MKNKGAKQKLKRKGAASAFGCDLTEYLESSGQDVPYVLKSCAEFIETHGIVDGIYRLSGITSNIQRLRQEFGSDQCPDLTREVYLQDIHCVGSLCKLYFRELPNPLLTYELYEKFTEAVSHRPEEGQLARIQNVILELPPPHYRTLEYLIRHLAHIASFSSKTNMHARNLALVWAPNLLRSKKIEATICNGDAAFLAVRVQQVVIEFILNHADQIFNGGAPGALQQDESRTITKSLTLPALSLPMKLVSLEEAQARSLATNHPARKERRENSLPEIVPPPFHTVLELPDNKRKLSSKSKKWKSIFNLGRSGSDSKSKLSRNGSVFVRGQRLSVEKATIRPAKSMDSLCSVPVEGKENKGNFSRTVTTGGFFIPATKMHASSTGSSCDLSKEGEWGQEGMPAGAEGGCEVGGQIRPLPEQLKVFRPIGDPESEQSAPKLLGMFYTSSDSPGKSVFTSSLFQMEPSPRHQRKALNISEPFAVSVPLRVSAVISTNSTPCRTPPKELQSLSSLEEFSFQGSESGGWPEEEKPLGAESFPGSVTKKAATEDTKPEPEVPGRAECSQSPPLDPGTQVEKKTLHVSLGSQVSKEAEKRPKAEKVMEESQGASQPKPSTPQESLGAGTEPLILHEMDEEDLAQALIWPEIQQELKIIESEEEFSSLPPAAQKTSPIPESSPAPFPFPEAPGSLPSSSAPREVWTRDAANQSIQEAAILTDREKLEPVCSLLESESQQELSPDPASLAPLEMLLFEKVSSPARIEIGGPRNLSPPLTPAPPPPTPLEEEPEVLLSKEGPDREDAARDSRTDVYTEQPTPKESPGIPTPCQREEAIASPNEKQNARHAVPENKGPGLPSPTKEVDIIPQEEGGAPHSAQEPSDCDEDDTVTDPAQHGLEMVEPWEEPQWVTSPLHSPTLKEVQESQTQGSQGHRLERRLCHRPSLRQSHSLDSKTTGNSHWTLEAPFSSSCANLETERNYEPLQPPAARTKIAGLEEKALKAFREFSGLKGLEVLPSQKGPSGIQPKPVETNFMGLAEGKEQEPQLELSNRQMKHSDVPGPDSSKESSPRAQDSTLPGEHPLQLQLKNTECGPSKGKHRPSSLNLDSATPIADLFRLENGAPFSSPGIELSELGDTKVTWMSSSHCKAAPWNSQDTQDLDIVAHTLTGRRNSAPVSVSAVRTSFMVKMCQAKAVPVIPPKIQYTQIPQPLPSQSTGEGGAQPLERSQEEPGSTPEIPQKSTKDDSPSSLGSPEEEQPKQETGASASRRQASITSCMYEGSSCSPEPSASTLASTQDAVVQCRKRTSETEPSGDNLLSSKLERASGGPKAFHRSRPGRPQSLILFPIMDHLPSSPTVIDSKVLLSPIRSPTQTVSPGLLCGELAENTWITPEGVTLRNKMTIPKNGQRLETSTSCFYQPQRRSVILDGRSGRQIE
# UniProt A2A8L5, whole entry: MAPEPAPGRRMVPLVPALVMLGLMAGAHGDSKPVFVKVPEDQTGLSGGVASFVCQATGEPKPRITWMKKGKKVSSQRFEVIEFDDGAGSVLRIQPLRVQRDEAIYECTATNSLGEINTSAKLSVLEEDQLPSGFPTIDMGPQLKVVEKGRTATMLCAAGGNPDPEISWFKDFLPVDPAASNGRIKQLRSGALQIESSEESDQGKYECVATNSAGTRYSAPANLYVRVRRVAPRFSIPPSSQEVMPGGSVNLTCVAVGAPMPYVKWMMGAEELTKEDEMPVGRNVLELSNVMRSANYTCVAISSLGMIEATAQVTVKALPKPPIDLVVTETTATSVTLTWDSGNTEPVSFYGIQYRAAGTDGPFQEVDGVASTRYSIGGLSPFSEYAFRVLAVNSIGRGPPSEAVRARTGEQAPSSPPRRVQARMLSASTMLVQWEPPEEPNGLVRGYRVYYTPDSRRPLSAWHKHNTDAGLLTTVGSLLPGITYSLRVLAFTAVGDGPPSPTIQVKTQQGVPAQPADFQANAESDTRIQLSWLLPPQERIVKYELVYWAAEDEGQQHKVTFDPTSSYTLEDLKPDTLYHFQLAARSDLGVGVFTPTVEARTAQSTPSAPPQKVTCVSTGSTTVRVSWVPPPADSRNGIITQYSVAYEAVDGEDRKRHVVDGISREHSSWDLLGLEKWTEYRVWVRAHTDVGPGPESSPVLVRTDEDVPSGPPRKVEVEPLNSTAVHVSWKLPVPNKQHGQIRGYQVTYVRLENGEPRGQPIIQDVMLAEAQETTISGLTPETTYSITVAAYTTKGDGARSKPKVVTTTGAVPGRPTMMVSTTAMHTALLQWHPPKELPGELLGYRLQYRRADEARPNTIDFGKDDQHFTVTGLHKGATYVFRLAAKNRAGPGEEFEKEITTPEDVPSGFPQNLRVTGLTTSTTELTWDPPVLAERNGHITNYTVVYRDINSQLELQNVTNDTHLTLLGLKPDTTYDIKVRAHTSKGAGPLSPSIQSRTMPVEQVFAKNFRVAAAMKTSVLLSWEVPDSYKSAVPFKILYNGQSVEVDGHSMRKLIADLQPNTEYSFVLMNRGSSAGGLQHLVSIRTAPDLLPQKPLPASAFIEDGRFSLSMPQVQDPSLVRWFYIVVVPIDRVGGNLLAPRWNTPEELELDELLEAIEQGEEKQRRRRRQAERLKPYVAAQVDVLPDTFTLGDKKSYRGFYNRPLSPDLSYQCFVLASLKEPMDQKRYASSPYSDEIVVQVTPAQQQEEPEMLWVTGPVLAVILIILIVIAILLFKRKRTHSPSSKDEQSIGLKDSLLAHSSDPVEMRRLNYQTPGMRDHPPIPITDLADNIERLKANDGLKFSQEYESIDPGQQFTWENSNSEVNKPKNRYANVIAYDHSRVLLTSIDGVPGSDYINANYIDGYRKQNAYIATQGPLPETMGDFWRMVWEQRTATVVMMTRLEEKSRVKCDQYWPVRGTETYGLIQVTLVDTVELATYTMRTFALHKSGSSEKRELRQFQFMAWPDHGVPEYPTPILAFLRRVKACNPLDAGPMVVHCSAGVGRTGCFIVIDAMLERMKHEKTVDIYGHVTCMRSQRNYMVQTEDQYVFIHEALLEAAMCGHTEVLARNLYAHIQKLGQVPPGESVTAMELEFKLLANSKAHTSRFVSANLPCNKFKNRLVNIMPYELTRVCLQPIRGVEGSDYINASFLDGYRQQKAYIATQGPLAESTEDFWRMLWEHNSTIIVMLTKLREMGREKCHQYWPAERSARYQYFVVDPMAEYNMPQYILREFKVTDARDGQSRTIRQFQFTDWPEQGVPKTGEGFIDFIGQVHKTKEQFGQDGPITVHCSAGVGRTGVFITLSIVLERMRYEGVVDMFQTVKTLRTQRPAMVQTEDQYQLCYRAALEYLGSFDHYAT
# UniProt E9Q634: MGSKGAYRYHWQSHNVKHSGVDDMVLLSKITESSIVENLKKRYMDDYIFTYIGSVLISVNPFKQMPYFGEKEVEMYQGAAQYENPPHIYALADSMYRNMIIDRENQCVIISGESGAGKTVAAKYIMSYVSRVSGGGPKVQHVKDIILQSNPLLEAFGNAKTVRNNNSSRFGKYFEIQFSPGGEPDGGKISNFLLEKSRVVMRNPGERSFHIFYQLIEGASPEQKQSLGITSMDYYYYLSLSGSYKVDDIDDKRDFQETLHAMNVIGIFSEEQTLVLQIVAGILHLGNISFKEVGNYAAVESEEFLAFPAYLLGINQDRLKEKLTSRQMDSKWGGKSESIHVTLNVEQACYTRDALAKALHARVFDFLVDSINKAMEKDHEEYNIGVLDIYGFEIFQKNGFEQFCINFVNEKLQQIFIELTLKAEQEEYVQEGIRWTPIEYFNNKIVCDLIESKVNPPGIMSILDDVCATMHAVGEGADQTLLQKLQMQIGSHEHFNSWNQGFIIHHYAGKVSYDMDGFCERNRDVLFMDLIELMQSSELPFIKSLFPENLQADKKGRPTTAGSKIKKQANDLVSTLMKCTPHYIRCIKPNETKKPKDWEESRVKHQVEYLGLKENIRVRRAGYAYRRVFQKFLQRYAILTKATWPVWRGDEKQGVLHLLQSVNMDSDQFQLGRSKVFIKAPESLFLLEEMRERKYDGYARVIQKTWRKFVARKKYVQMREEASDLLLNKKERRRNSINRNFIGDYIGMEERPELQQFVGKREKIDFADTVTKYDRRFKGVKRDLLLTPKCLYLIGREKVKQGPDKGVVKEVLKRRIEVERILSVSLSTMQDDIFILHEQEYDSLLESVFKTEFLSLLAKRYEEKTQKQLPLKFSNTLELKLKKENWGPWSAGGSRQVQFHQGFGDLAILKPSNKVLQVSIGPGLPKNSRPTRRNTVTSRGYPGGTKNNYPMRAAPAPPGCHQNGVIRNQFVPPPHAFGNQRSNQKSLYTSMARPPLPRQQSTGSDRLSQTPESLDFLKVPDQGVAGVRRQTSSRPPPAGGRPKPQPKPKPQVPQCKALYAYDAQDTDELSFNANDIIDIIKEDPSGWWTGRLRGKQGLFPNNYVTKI
# This is one part of the list. Most values lie at the level of the controls, where differences are scatter.
# Compound: CN[C@@H]1C[C@H]2O[C@@](C)([C@@H]1OC)n1c3ccccc3c3c4c(c5c6ccccc6n2c5c31)C(=O)NC4 [staurosporine]
# Test: log2 fold change of pooled soluble protein (PISA), ligand vs vehicle (log2 ratio); higher = more thermally stabilized
# Settings: ligand concentration: 20 uM; assay format: PISA pool 52.9/55.5/58.6 C
row,Target,log2 fold change of pooled soluble protein
1,UniProt A9JSM3,0.0924
2,C0HKD8;C0HKD9,-0.0246
3,UniProt D3Z4S3,0.216
4,UniProt B1AR13,-0.0698
5,UniProt D3YZP9,0.0739
6,UniProt A2AJI0,0.0331
7,"A0A0G2JDV3, A0A0G2JDV3",-0.00912
8,UniProt E9Q7G0,-0.135
9,UniProt E9Q309,-0.543
10,UniProt B2RXS4,-0.0736
11,UniProt E9PVA8,-0.338
12,UniProt E9Q557,-0.082
13,UniProt B1AY10,-0.261
14,UniProt B1AZA5,-0.0278
15,UniProt A2ASS6,0.0402
16,UniProt E9Q0S6,-0.0736
17,UniProt A6X8Z5,-0.107

# An excerpt of these results, with tabs.
row	Target	log2 fold change of pooled soluble protein
11	UniProt E9PVA8	-0.338
14	UniProt B1AZA5	-0.0278

# Next part:

row,Target,log2 fold change of pooled soluble protein
1,UniProt A6H611,0.155
2,UniProt A2ATU0,-0.163
3,UniProt B8JK39,0.00873
4,UniProt A2AS89,-0.479
5,UniProt A3KMP2,0.0438
6,UniProt A2AWA9,-0.142
7,UniProt A2APT9,0.216
8,UniProt A2A8L5,0.0232
9,UniProt A2A7S8,-0.0146
10,UniProt A2AJB2,-0.0262
11,UniProt E9Q4Z2,-0.28
12,UniProt E9Q4N7,0.0448
13,UniProt E9Q634,0.0169
14,UniProt A6H5X4,-0.0375
15,UniProt B2RX12,-0.0225
16,UniProt E9Q4P1,-0.0178
